Data taken from the supplement of paper PMC12823440, “Inhibitors supercharge kinase turnover through native proteolytic circuits” (Nature, 2025).
Counter-ions that a name gives are not always drawn. This is one part of the list. The calls rarely recur for the same compound in another form.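 Kinases, fused to nanoluciferase, were expressed in K562 cells; luminescence was measured every 4 h from 2 to 18 h as percent of control (DMSO = 100%, positive control = 0%). A time point is decreased if signal falls significantly (2 sigma). Hits were called by the authors by a rule that is not shown; the count of time points alone does not decide it.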

Protein sequences, listed by entry. Tags and fused reporters are not part of them. Lines headed by an entry give the natural chain unless they say otherwise; changes in a name come on top.
UniProt Q13555: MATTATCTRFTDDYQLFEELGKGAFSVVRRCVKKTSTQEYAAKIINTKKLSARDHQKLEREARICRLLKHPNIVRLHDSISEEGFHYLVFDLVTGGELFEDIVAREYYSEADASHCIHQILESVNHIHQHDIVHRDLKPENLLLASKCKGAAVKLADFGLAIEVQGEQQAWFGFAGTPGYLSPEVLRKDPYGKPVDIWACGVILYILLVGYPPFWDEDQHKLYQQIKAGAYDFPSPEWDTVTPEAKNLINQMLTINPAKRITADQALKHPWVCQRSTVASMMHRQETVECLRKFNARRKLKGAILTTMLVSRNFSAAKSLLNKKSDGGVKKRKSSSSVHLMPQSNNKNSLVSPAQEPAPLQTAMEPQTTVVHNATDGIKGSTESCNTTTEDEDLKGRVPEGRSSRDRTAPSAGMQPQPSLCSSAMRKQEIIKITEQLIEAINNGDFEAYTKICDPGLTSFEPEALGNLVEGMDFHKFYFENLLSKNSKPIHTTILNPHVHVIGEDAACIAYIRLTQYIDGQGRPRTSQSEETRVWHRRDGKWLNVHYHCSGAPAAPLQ
UniProt Q15131: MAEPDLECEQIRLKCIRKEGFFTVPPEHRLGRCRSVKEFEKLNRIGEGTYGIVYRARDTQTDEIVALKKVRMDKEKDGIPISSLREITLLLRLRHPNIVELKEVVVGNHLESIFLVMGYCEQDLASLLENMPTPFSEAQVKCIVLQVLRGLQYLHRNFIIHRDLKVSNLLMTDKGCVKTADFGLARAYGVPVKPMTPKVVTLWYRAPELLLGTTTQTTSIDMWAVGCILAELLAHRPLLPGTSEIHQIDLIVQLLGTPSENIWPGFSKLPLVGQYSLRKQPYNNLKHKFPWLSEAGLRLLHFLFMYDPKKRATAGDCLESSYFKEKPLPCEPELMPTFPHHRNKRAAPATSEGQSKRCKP

Target: CAMK2G (UniProt Q13555)
Test: number of time points (of 5) at which kinase-Nluc abundance scored as decreased, DMSO-normalised (count); higher = more persistent destabilization
Settings: K562; 2-18 h

| SMILES | number of time points |
| --- | --- |
| COc1cc(C)c(Sc2cnc(NC(=O)c3ccc(CNC(C)C(C)(C)C)cc3)s2)cc1C(=O)N1CCN(C(C)=O)CC1 (configuration not stated) (2.5 µM) | 0 |
| CCN(CC)CCCCNc1ncc2cc(-c3c(Cl)cccc3Cl)c(NC(=O)NC(C)(C)C)nc2n1 (2.5 µM) | 3 |
| COc1cc(C=C(C#N)C(N)=O)cc(CSc2nc3ccccc3s2)c1O (10 µM) | 0 |
| C[C@]1(O)C[C@@H](c2nc(-c3ccc4ccc(-c5ccccc5)nc4c3)c3c(N)nccn32)C1 [Linsitinib] (2.5 µM) | 0 |
| CCN1CCN(c2ccc(Nc3cc(N(C)C(=O)Nc4c(Cl)c(OC)cc(OC)c4Cl)ncn3)cc2)CC1 [Infigratinib] (10 µM) | 0 |
| COc1c(CC=C(C)C)c(O)cc2oc(=O)c(-c3ccc(O)cc3O)cc12 [Glycycoumarin] (10 µM) | 0 |
| Cc1cc(C(=O)Nc2cccc(C(=O)Nc3cccc(C(F)(F)F)c3)c2)on1 (10 µM) | 0 |
| Cn1c(=O)c(Oc2ccc(F)cc2F)cc2cnc(NC3CCOCC3)nc21 [R1487 (Hydrochloride)] (10 µM) | 0 |

Target: CDK10 (UniProt Q15131)
Test: as above
Settings: K562; 2-18 h

| SMILES | number of time points |
| --- | --- |
| N#Cc1ccc2[nH]c(O)c(-c3ccc(CN4CCOCC4)cn3)c2c1 (10 µM) | 0 |
| CCN(CC)CCCCNc1ncc2cc(-c3cc(OC)cc(OC)c3)c(NC(=O)NC(C)(C)C)nc2n1 (10 µM) | 0 |
| Oc1ccc(-c2nc(-c3ccc(F)cc3)c(-c3ccncc3)[nH]2)cc1 (2.5 µM) | 0 |
| O=C1NCCc2[nH]c(-c3ccnc(-c4cnc5ccccc5c4)c3)cc21 (10 µM) | 0 |
| Cc1cc(N2CCOCC2)cc2[nH]c(-c3c(NC[C@@H](O)c4cccc(Cl)c4)cc[nH]c3=O)nc12 (10 µM) | 0 |
| COc1cc(OC)cc(-c2cc3cnc(N)nc3nc2NC(=O)NC(C)(C)C)c1 (10 µM) | 0 |
| Cc1ccc(NC(=O)Nc2nnc(Sc3ncnc4cc(OCCCN5CCOCC5)ccc34)s2)cc1 (10 µM) | 0 |
| N#C/C(=C\c1ccc(O)c(O)c1)C(=O)NCCCc1ccccc1 (10 µM) | 0 |
| Cc1cccc([C@@H](CO)NC(=O)[C@@H](C)N2Cc3ccc(-c4nc(NC5CCOCC5)ncc4Cl)cc3C2=O)c1 [ERK1/2 inhibitor 1] (10 µM) | 0 |
| CCOc1ccn(-c2ccc(F)cc2)c(=O)c1C(=O)Nc1ccc(Oc2ccnc(N)c2Cl)c(F)c1 (10 µM) | 0 |
| O=c1cc(N2CCOCC2)oc2c(-c3ccccc3)cccc12 (10 µM) | 0 |
| O=c1oc2c(O)c(O)cc3c(=O)oc4c(O)c(O)cc1c4c23 [Ellagic acid] (10 µM) | 0 |
| C=CC(=O)Nc1ccc2ncnc(Nc3cccc(Br)c3)c2c1 (10 µM) | 0 |
| Cc1c(Cn2c(C)nc3c(C(=O)O)cc(N4CCOCC4)cc32)cccc1C(F)(F)F (10 µM) | 0 |
| Cc1c[nH]c2nccc(Oc3c(F)cc(Nc4cc(Cl)nc(N)n4)cc3F)c12 (10 µM) | 0 |
| CC(C)CC(=O)Nc1n[nH]c2c1CN(C(=O)C1CCN(C)CC1)C2(C)C (2.5 µM) | 0 |
| CCN(CCO)CCCOc1ccc2c(Nc3cc(CC(=O)Nc4cccc(F)c4)[nH]n3)ncnc2c1 [Barasertib-HQPA] (10 µM) | 0 |
| N#C/C(=C\c1ccc(O)c(O)c1)C(=O)NCc1ccccc1 (10 µM) | 0 |
| COc1nccc(-c2c(-c3ccc(F)cc3)ncn2C2CCC(O)CC2)n1 (configuration not stated) (10 µM) | 0 |
| O=c1c(-c2ccc(O)cc2)coc2cc(O)cc(O)c12 [Genistein] (10 µM) | 0 |

| SMILES | number of time points |
| --- | --- |
| CCOc1cc2ncc(C#N)c(Nc3ccc(OCc4ccccn4)c(Cl)c3)c2cc1NC(=O)/C=C/CN(C)C [Neratinib] (10 µM) | 0 |
| CN1CCC(Nc2ncc3ncnc(Nc4ccc(F)c(Cl)c4)c3n2)CC1 [Falnidamol] (10 µM) | 0 |
| O=c1c(O)c(-c2ccc(O)c(O)c2)oc2cc(O)cc(O)c12 [Quercetin (dihydrate)] (10 µM) | 0 |
| COc1ccc(C=C(C#N)c2cccnc2)cc1OC (10 µM) | 0 |
| Nc1ncnc2c1c(-c1ccc(Oc3ccccc3)cc1)cn2C1CCCC1 (2.5 µM) | 0 |
| COc1cc2nc(C)nc(N[C@H](C)c3cc(N)cc(C(F)(F)F)c3)c2cc1O[C@H]1CCOC1 (10 µM) | 0 |
| N#CC(=Cc1ccc(O)c(O)c1)C(=O)NCc1ccccc1 (mixture of isomers) (10 µM) | 0 |
| O=C1Cc2c([nH]c3ccc(Br)cc23)-c2ncccc2N1 [1-Azakenpaullone] (10 µM) | 0 |
| COc1cc2c(Nc3ccc(Br)cc3F)ncnc2cc1OCCn1ccnn1 (10 µM) | 0 |
| CNc1nc(-c2ccc3c(N)n[nH]c3c2)cc(N2C[C@@H](C(=O)NC3CCCCC3)CC[C@H]2C)n1 (10 µM) | 0 |
| Cc1cc(F)c(C(=O)Nc2cccc(-c3nncn3C(C)C)n2)cc1-n1cnc(C2CC2)c1 [Selonsertib] (10 µM) | 0 |
| COc1cc(C)c(Sc2cnc(NC(=O)c3ccc(CNC(C)C(C)(C)C)cc3)s2)cc1C(=O)N1CCN(C(C)=O)CC1 (configuration not stated) (2.5 µM) | 0 |
| CCN(CC)CCCCNc1ncc2cc(-c3c(Cl)cccc3Cl)c(NC(=O)NC(C)(C)C)nc2n1 (2.5 µM) | 0 |
| COc1cc(C=C(C#N)C(N)=O)cc(CSc2nc3ccccc3s2)c1O (10 µM) | 0 |
| C[C@]1(O)C[C@@H](c2nc(-c3ccc4ccc(-c5ccccc5)nc4c3)c3c(N)nccn32)C1 [Linsitinib] (2.5 µM) | 0 |
| CCN1CCN(c2ccc(Nc3cc(N(C)C(=O)Nc4c(Cl)c(OC)cc(OC)c4Cl)ncn3)cc2)CC1 [Infigratinib] (10 µM) | 0 |
| COc1c(CC=C(C)C)c(O)cc2oc(=O)c(-c3ccc(O)cc3O)cc12 [Glycycoumarin] (10 µM) | 0 |
| Cc1cc(C(=O)Nc2cccc(C(=O)Nc3cccc(C(F)(F)F)c3)c2)on1 (10 µM) | 0 |
| Cn1c(=O)c(Oc2ccc(F)cc2F)cc2cnc(NC3CCOCC3)nc21 [R1487 (Hydrochloride)] (10 µM) | 0 |
